The values below come from PMC12781872.

By UniProt entry, the sequences of proteins in these tests, tags left out. Where a name states a change or a piece, a line headed by the entry shows the natural chain unless it says otherwise.
UniProt P9WGZ1: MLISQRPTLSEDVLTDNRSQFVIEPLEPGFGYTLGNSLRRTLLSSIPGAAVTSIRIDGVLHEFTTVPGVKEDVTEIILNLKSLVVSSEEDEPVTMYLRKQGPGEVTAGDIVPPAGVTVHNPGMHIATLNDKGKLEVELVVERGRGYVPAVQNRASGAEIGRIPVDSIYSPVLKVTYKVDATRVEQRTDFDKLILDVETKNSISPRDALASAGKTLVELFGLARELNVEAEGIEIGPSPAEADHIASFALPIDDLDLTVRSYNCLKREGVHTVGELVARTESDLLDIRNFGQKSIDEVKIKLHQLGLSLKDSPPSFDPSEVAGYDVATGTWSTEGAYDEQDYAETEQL

These are yes or no findings as the source states them, for the method shown. Some entries that bind do so weakly or less than the wild type.

The test deals with Mycobacterium tuberculosis RNA polymerase core (α2ββ'ω), wildtype (Mycobacterium tuberculosis) (UniProt P9WGZ1). In words: native gel or EMSA; both purified. For orientation: A gel shift assay detects complexes by their altered migration in electrophoresis.

B1: Mtb NusA (labelled) (protein, UniProt P9WIV3 1-347)
chain: MNIDMAALHAIEVDRGISVNELLETIKSALLTAYRHTQGHQTDARIEIDRKTGVVRVIARETDEAGNLISEWDDTPEGFGRIAATTARQVMLQRFRDAENERTYGEFSTREGEIVAGVIQRDSRANARGLVVVRIGTETKASEGVIPAAEQVPGESYEHGNRLRCYVVGVTRGAREPLITLSRTHPNLVRKLFSLEVPEIADGSVEIVAVAREAGHRSKIAVRSNVAGLNAKGACIGPMGQRVRNVMSELSGEKIDIIDYDDDPARFVANALSPAKVVSVSVIDQTARAARVVVPDFQLSLAIGKEGQNARLAARLTGWRIDIRGDAPPPPPGQPEPGVSRGMAHDR
For the molecule B1, the binding result is “binds”.

B2: TMR-labelled Mtb σ^F (wild type, labelled at the natural cysteine, residue 47 of σ2) (protein, UniProt P9WGI3 1-261)
chain: MTARAAGGSASRANEYADVPEMFRELVGLPAGSPEFQRHRDKIVQRCLPLADHIARRFEGRGEPRDDLIQVARVGLVNAAVRFDVKTGSDFVSFAVPTIMGEVRRHFRDNSWSVKVPRRLKELHLRLGTATADLSQRLGRAPSASELAAELGMDRAEVIEGLLAGSSYHTLSIDSGGGSDDDARAITDTLGDVDAGLDQIENREVLRPLLEALPERERTVLVLRFFDSMTQTQIAERVGISQMHVSRLLAKSLARLRDQLE
For B2, the binding entry was “binds”.
